Data reported in US20210388068A1.
No constants are given. Whether binding was seen depends on the method and setting. Some binding calls cover weakened binding; strength is not graded here. Tags and fused reporters may be left off the sequences shown.

How the values were obtained:
[1] = target: T1, N-terminal adhesin domain of CfaE fused to maltose-binding protein (MBP-CfaE-N) (enterotoxigenic Escherichia coli (ETEC)) (UniProt P25734); assay: SPR, comparison of KD
T1 sequence (looked up): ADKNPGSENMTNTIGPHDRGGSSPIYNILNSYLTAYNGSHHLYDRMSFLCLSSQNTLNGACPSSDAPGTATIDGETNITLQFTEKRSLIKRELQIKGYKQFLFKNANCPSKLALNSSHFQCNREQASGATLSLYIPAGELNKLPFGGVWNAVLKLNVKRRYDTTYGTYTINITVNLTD

[2] = target: T1, N-terminal adhesin domain of CfaE fused to maltose-binding protein (MBP-CfaE-N) (enterotoxigenic Escherichia coli (ETEC)); assay: ELISA, plate-coated MBP-CfaE-N
[3] = target: T1, N-terminal adhesin domain of CfaE fused to maltose-binding protein (MBP-CfaE-N) (enterotoxigenic Escherichia coli (ETEC)); assay: ELISA on plate-bound wild-type MBP-CfaE-N, OD405
[4] = target: T1, N-terminal adhesin domain of CfaE fused to maltose-binding protein (MBP-CfaE-N) (enterotoxigenic Escherichia coli (ETEC)); assay: ELISA on plate-bound MBP-CfaE-N, anti-human IgG Fc-AP, OD405
[5] = target: T1, N-terminal adhesin domain of CfaE fused to maltose-binding protein (MBP-CfaE-N) (enterotoxigenic Escherichia coli (ETEC)); assay: SPR, Biacore T200, HuMAb captured on anti-human IgG, MBP-CfaE-N as analyte, 25 C
[6] = target: T1, N-terminal adhesin domain of CfaE fused to maltose-binding protein (MBP-CfaE-N) (enterotoxigenic Escherichia coli (ETEC)); assay: SPR, comparison of KD (member of the lower-affinity set)

Measured: binding

B1: anti-CfaE HuMab 68-48 (antibody, human IgG1, V domains shown)
VH: QVQLQQWGAGLLKPSETLSLTCAVYGGSFSGYSWSWIRQSPGKGLEWIGEIYHSGSTNYNPSLKSRVTISGDTSKNQFSLKLSSVTAADTAVYYCARENLQGYYYYGMDVWGQGTTVTVSS
VL: AIQLTQSPSSLSASVGDRVTITCRASQGISSSLAWYQQKPGKAPKLLIYDASSLESGVPSRFSGSGSGTDFTLTISSLQPEDFATYYCQQFNSYPRTFGQGTKVEIK
not listed: [6]
binds: all other assays above

B2: anti-CfaE HuMab 68-61 (antibody, human IgG1, V domains shown)
VH: QVQLVQSGAEVKNPGSSVRVSCEASGGTFSSFAISWVRQAPGQGLEWMGRIIPILDIVKYAQRFQGRVTISADKSTSTAYMELSSLRSEGTAVYYCARDDIAGSDFDIWGQGTMVTVSS
VL: DIQMTQSPSSLSASVGDRVTITCRASQGISSWLAWYQQKPEKAPKSLIYAASSLQSGVPSRFSGSGSGTDFTLTISSLQPEDFATYYCQQYTSYPYTFGQGTKLEIK
not listed: [1]
binds: all other assays above

B3: anti-CfaE HuMab 68-90 (antibody, human IgG1, V domains shown)
VH: QVQLQQWGAGLLKPSETLSLTCAVYGGSFSAYYWSWIRQPPGKGLEWIGEINHSGNTNYNPSLESRVTISVDTSKNQVSLKQSSVTAADTAVYYCARNWGPNAFDIWGRGTMVTVSS
VL: DIQMTQSPSSVSASVGDRVTITCRASQDITSWLVWYQHKPGKAPKLLIYAASSLQSGVPSRFSGSGSGTDFTLTISSLQPEDFATYYCQQANIFPYTFGQGTKLEIK
not listed: [1]
binds: all other assays above
